The text below walks through data of paper PMC4055408.

Amino acid sequences for entries named in this document (tags omitted).
UniProt Q9UI95: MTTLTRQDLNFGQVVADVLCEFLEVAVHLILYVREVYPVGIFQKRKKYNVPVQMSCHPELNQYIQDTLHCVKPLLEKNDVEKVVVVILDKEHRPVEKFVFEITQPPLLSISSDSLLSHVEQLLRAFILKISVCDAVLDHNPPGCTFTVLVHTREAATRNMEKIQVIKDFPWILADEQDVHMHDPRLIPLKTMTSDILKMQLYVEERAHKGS
UniProt P27708: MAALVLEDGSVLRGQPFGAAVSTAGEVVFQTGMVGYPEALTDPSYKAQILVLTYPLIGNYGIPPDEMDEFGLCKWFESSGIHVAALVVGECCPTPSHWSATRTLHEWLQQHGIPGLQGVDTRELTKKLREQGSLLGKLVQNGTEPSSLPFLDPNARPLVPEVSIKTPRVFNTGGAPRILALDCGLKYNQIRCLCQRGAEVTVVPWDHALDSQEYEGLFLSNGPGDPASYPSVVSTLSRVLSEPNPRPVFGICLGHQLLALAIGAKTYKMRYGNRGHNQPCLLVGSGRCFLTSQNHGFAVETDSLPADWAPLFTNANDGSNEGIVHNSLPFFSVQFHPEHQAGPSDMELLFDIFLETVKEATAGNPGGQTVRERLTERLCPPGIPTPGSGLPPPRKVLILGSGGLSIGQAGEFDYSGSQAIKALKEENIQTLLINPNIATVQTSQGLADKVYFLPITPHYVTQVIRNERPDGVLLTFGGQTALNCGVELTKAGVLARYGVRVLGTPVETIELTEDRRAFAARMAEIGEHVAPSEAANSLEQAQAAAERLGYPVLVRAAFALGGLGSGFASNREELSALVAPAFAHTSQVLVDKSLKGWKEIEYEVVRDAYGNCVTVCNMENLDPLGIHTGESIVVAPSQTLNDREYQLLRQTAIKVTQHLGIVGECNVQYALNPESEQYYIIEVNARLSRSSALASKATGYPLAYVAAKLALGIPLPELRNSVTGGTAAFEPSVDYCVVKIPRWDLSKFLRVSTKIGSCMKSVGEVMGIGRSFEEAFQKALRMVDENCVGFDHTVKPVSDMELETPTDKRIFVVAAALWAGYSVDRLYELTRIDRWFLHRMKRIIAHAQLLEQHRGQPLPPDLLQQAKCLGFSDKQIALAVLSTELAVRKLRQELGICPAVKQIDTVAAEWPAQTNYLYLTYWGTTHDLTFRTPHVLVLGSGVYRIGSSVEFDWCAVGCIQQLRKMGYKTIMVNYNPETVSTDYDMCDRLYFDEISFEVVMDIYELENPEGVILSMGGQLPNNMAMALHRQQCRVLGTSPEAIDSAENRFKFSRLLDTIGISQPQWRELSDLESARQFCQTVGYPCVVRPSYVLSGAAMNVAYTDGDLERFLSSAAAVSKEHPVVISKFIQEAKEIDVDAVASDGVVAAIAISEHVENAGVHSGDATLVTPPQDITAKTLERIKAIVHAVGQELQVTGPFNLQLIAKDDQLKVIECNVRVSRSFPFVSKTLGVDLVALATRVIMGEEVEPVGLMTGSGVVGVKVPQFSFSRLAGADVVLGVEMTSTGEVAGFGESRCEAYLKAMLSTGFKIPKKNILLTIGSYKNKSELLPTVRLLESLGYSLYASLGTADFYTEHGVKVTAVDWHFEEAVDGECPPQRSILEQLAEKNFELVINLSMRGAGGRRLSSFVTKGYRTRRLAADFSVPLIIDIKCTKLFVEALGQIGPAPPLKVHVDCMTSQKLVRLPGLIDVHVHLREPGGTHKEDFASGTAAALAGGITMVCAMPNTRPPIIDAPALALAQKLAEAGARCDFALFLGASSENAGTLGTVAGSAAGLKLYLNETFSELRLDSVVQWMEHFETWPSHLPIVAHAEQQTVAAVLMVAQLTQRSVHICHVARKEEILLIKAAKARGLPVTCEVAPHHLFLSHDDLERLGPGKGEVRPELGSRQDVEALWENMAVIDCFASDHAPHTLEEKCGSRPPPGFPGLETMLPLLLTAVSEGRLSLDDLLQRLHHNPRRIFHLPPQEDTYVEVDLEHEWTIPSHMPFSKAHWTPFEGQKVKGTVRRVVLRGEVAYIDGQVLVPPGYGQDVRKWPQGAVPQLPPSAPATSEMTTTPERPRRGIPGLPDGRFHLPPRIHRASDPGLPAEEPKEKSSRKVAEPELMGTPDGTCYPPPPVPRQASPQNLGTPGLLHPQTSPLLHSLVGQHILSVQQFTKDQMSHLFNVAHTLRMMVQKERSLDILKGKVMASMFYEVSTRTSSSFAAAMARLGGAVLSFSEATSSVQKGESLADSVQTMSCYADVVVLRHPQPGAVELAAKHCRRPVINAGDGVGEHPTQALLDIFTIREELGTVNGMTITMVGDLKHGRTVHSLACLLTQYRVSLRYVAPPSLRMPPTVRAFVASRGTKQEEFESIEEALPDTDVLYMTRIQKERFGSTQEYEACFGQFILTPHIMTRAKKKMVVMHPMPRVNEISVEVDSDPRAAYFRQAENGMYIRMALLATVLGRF
UniProt P78347: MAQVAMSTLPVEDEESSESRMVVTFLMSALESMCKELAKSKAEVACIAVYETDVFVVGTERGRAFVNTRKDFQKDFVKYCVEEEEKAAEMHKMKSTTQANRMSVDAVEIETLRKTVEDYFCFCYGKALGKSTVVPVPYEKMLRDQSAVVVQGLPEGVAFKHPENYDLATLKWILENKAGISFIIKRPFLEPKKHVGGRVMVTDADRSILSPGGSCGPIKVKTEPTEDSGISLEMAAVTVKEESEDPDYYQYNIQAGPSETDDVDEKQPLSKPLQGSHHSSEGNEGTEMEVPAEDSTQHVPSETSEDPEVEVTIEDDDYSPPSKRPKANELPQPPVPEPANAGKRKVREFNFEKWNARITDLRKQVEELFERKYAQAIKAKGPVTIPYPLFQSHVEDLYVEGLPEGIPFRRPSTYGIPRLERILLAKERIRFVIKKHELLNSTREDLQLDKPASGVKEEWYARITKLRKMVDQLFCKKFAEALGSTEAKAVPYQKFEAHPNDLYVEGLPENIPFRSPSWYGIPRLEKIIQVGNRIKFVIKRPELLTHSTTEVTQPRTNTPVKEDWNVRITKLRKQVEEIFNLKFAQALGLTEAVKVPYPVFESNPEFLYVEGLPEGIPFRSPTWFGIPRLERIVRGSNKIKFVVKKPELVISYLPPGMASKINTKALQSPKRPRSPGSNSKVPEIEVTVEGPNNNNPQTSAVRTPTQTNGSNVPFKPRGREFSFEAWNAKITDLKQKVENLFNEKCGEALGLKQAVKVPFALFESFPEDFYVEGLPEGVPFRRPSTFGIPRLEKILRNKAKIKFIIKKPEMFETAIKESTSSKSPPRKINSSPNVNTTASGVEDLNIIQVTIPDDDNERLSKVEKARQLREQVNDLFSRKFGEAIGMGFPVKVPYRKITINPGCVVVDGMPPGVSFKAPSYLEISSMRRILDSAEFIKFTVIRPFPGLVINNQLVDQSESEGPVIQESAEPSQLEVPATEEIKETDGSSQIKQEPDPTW

These are yes or no findings as the source states them, for the method shown. Binding seen in cells or lysates may run through a third protein. These calls come from enrichment with a bait or labelling near it, and not all partners need be listed.

The experiment has as its target TAP-Rev7 (human Rev7 fused at its N-terminus with a tandem affinity purification tag) (human) (UniProt Q9UI95). In words: affinity purification with mass spectrometry; tandem affinity purification of TAP-Rev7 from stable 293T cells (IgG-Sepharose, TEV, calmodulin-Sepharose), with or without UV 10 J/m^2; bands cut from the gel of the unirradiated sample, nano-LC/MS/MS.

“CAD (Carbamoyl-phosphate synthetase 2, Aspartate transcarbamylase, and Dihydroorotase), endogenous (from UniProt P27708 1-2225) (enzyme)”: the binding entry is listed as “binds”. The entry for “TFII-I, endogenous (from UniProt P78347 1-998)” is “binds”.
